These are yes or no findings as the source states them, for the method shown. Where a sequence is shown, tags or fusion partners need not be part of it.
Biological target: T1, GST-tagged NUSAP1 wild type (GST-NUSAP1-WT) (human) (UniProt Q9BXS6)
T1 sequence: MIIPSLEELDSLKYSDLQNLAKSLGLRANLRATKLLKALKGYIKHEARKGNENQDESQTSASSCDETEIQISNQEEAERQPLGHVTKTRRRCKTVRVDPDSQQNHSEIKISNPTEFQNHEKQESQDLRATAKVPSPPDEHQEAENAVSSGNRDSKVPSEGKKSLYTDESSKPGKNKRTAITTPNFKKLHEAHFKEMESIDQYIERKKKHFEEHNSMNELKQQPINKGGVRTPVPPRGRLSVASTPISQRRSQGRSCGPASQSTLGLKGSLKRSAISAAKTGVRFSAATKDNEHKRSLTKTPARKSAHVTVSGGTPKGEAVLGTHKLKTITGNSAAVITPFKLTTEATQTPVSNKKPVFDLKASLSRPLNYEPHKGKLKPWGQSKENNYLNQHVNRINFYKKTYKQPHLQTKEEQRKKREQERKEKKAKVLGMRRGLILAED
Experiment: pull-down; GST-NUSAP1 on glutathione-Sepharose beads incubated with purified His-tagged prey at 4 °C for 4 h in 20 mM Tris-HCl pH 7.5, 150 mM NaCl, 0.5% Triton X-100; washed with 300 mM NaCl; blots with anti-GST and anti-His; both purified

binding: no binding
Substance: His-tagged Notch2 intracellular domain (N2ICD) (domain or fragment)

Reference: PMC12092681
